Measurements from the supplement of paper PMC11006884.
This is a selection; strong and weak results do not stand in their true shares.

Chains of the proteins cited; added tags and fusions are not shown. Lines headed by an entry give the natural chain unless they say otherwise; changes in a name come on top.
UniProt P35658: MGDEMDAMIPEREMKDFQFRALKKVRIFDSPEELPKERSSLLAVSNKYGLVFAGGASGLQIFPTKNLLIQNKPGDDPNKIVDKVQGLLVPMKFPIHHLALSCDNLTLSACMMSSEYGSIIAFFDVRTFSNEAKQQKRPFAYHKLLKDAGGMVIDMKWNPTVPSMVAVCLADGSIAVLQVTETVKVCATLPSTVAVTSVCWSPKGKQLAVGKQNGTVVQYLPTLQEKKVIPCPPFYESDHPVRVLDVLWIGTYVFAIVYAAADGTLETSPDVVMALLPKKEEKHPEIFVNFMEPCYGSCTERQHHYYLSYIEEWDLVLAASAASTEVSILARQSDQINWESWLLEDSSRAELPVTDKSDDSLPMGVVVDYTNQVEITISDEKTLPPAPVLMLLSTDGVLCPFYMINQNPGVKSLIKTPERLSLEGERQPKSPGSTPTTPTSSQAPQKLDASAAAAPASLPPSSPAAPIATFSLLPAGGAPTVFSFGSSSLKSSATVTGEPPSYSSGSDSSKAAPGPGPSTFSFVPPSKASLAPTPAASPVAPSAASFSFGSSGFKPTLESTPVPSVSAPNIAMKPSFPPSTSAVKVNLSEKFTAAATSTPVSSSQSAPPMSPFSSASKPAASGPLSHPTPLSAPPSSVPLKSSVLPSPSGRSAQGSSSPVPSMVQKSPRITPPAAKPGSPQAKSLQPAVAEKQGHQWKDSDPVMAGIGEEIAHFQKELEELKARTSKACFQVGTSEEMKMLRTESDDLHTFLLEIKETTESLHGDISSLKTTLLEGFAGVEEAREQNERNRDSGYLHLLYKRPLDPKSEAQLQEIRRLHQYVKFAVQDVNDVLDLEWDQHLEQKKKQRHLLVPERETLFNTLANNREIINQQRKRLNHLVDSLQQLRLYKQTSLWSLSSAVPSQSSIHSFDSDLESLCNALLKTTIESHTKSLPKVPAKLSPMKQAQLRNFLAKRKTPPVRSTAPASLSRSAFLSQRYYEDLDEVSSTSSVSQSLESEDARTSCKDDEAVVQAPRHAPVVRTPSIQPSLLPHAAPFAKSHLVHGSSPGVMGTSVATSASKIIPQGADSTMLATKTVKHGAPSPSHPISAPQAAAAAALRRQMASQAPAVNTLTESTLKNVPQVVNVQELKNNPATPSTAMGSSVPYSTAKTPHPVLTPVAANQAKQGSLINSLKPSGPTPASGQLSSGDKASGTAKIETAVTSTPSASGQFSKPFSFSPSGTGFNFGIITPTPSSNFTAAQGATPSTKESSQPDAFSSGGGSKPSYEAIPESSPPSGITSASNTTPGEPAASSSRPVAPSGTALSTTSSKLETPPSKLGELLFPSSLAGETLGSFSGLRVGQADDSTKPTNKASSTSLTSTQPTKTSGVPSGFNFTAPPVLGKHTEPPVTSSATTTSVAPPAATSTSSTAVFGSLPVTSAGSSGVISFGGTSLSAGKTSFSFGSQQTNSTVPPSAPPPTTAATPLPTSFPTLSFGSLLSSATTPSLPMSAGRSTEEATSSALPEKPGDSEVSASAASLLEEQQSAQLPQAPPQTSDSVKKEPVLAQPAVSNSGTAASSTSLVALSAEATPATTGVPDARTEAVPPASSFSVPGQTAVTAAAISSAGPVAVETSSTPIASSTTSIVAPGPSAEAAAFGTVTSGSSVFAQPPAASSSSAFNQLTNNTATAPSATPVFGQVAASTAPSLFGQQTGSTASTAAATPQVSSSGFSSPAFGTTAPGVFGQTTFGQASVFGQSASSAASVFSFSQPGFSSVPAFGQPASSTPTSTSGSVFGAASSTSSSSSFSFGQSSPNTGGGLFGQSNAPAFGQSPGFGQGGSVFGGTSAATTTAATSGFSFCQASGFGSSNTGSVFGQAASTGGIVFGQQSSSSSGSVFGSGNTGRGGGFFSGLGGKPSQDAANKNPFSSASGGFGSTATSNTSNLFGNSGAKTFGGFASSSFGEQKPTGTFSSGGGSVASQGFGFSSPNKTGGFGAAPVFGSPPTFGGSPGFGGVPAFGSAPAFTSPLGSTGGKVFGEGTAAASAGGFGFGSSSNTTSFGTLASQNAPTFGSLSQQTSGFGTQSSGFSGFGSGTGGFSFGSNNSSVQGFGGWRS
UniProt P35611: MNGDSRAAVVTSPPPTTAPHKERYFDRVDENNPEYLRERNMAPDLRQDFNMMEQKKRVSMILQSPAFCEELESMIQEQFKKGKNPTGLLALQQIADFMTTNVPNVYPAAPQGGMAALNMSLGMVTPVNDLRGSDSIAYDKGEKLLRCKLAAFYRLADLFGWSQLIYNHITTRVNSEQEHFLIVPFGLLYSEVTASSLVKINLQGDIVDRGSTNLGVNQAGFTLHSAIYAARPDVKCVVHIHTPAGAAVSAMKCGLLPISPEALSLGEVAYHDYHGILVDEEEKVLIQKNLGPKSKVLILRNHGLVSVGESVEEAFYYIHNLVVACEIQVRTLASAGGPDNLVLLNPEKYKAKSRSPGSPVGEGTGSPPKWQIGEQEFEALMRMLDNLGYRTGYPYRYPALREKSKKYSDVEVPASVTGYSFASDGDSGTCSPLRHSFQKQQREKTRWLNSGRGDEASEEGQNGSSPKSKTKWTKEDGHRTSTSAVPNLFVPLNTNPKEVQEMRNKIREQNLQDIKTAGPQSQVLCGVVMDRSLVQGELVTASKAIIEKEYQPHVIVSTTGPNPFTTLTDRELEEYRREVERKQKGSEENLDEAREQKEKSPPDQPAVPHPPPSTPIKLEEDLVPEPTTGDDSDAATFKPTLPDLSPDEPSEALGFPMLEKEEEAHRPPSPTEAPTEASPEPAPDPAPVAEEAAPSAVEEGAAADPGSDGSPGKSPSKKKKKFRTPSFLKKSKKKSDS
UniProt P38117: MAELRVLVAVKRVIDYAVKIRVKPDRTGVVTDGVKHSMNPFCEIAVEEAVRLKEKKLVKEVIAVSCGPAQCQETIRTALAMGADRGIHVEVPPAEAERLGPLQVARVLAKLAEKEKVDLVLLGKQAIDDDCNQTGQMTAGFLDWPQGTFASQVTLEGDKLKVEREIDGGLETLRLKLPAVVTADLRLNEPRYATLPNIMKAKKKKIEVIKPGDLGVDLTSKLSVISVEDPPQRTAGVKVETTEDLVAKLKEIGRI
UniProt P33992: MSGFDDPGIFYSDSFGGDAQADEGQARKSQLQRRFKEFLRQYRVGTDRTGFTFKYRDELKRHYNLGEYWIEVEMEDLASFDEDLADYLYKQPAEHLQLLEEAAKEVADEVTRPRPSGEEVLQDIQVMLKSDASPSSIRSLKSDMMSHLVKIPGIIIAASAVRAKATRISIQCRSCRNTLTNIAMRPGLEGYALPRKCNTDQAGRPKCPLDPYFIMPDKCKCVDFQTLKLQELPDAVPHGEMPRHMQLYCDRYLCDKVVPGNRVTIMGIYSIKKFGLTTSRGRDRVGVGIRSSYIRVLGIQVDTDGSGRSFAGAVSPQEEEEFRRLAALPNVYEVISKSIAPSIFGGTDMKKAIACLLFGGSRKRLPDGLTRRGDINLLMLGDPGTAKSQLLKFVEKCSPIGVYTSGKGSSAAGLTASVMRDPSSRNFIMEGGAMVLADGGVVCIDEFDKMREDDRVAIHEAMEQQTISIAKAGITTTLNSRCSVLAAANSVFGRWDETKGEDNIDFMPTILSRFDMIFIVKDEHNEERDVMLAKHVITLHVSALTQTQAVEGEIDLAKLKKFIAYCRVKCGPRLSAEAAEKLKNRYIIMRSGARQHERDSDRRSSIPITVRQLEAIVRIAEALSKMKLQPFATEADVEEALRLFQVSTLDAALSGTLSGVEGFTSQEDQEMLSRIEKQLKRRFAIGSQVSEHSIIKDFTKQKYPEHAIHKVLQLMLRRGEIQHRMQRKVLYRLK
UniProt P34932: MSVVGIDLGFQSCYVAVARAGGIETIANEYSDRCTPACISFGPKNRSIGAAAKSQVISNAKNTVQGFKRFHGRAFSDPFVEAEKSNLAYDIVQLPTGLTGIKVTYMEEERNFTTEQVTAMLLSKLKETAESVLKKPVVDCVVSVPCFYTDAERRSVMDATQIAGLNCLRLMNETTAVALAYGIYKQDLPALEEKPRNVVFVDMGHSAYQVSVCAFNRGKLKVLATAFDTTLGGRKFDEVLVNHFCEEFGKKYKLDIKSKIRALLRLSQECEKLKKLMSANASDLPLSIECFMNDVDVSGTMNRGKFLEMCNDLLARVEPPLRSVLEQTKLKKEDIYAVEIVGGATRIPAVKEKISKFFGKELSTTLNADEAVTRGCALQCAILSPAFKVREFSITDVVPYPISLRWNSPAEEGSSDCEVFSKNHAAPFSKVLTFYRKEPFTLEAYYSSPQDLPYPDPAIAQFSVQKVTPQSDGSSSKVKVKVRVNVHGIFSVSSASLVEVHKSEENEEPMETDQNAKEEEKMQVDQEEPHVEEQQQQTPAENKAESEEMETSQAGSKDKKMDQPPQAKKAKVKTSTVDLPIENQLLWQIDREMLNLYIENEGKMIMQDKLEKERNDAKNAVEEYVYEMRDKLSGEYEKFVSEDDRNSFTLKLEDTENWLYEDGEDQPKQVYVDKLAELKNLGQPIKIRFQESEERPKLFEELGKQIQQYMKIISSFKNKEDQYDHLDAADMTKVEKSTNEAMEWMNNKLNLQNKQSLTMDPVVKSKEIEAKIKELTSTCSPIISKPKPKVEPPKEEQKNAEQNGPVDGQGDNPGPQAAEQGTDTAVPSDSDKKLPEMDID
UniProt P41250: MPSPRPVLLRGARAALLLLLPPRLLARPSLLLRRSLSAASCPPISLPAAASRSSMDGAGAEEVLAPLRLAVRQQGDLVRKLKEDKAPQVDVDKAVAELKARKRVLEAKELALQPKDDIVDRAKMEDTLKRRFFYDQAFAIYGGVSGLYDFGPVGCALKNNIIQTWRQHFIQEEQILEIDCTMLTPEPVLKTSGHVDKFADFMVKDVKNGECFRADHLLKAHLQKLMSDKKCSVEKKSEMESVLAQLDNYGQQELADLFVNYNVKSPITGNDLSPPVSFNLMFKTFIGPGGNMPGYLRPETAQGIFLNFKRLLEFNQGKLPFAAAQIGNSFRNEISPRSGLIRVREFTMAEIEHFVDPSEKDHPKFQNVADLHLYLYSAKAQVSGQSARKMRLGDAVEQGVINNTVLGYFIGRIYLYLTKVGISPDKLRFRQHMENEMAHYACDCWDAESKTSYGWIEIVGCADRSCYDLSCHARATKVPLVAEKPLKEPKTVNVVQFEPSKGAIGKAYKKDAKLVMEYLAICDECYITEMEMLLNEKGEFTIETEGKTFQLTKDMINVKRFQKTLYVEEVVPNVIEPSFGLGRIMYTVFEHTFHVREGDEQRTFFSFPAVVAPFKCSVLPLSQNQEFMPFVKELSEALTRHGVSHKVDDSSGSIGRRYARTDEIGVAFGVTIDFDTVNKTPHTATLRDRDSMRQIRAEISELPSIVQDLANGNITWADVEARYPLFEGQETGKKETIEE
UniProt P39748, whole entry, looked up: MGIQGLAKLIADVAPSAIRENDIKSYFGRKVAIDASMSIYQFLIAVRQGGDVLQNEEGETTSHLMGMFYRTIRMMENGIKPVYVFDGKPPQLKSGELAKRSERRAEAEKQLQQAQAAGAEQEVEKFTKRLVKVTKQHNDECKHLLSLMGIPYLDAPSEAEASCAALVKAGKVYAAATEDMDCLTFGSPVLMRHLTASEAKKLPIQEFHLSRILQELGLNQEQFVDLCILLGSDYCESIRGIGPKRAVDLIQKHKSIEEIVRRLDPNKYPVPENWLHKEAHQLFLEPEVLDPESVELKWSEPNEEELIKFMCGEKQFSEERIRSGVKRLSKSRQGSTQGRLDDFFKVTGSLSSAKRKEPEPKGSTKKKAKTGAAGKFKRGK
UniProt P35659: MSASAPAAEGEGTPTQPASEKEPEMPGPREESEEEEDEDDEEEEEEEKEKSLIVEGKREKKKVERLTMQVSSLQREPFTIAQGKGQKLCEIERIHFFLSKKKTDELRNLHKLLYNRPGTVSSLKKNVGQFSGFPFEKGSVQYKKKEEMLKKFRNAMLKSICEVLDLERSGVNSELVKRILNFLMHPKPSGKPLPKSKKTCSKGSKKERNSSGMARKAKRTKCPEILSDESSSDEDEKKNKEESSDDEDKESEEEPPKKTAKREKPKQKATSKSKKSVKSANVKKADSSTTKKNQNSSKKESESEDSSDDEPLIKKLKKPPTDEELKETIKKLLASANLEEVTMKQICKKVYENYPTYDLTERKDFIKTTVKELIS
UniProt P42574: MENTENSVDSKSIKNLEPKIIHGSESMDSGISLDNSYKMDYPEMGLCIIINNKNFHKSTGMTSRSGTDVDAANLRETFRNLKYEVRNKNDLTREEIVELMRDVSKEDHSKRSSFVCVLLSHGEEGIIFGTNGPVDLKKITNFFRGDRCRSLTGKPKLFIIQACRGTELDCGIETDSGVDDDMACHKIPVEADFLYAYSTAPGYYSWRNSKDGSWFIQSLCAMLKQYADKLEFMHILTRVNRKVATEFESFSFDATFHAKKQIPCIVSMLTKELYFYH
UniProt P41567, whole entry, looked up: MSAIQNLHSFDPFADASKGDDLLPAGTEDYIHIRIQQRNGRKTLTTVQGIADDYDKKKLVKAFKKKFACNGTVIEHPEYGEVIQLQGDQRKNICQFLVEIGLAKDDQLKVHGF

compound: COC(=O)C#Cc1ccccc1 [methyl 3-phenylpropiolate]; assay: log2 ratio of iodoacetamide-alkyne labeling of the cysteine site, DMSO over compound (competition); higher = stronger covalent engagement of the cysteine by the compound, active = 1 or more; details: 500 µM; treatment time 1 h; system: HEK293T cell lysate
Method in brief: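 Three replicates, each with duplicate channels, were prepared from HEK293T lysate (2 mg/mL) treated with vehicle or electrophile at 500 µM for 1 h at ambient temperature. Iodoacetamide alkyne was then applied for 1 h, and samples were clicked to sCIP-TMT reagents, pooled, trypsin-digested overnight at 37 °C, enriched on streptavidin, acid-eluted and analysed on Orbitrap Eclipse LC-MS/MS with FAIMS, with FragPipe quantification. The log2 competition ratio per cysteine is the mean control-channel divided by the mean compound-channel reporter intensity. Cysteines quantified in only one replicate were left out.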

log2 ratio of iodoacetamide-alkyne labeling, inactive:
NUP214 C1003 (UniProt P35658) 0.236
ADD1 C253 (UniProt P35611) 0.101
SHMT1 C110 (UniProt P34896) 0.28
IARS C185 (UniProt P41252) 0.162
TAGLN2 C124 (UniProt P37802) 0.482
FUS C444 (UniProt P35637) -0.312
ADD1 C68 (UniProt P35611) 0.368
ETFB C71 (UniProt P38117) 0.579
NCAPD3 C330 (UniProt P42695) 0.316
MYH9 C1379 (UniProt P35579) 0.164
MCM5 C397 (UniProt P33992) 0.145
PPP2R1A C148 (UniProt P30153) 0.22
HSPA4 C310 (UniProt P34932) 0.0466
MDH2 C285 (UniProt P40926) 0.266
SDHA C89 (UniProt P31040) -0.0333
UniProt P41250_C616 -0.119
ETFB C42 (UniProt P38117) 0.207
POLR2B C919 (UniProt P30876) -0.0368
LONP1 C682 (UniProt P36776) 0.203
POLR2B C945 (UniProt P30876) 0.456
FEN1 C163 (UniProt P39748) 0.541
RPL4 C208 (UniProt P36578) 0.273
DEK C200 (UniProt P35659) 0.718
UQCRC1 C410 (UniProt P31930) 0.0827
STAT3 C259 (UniProt P40763) 0.646
PDIA3 C406 (UniProt P30101) 0.687
GDI1 C202 (UniProt P31150) 0.0604
MAT2A C56 (UniProt P31153) 0.109
HSPA4 C417 (UniProt P34932) 0.208
POLR2B C1137 (UniProt P30876) 0.175
CASP3 C184 (UniProt P42574) 0.259
LRPPRC C330 (UniProt P42704) 0.136
SHMT2 C412 (UniProt P34897) 0.124
EIF1 C94 (UniProt P41567) 0.115
AGL C767 (UniProt P35573) 0.21
STIP1 C471 (UniProt P31948) -0.107
UQCRC1 C268 (UniProt P31930) 0.113

An excerpt from the list above, for reference:
log2 ratio of iodoacetamide-alkyne labeling, inactive:
MYH9 C1379 (UniProt P35579) 0.164
MCM5 C397 (UniProt P33992) 0.145
